Measurements published in publication PMC6887592.
These are yes or no findings as the source states them, for the method shown. In cells and extracts the contact can be indirect.

Sequences of proteins named here, by UniProt entry; tags and fusion partners are left off. Residues count along the entry.
UniProt P01033, residues 24-207: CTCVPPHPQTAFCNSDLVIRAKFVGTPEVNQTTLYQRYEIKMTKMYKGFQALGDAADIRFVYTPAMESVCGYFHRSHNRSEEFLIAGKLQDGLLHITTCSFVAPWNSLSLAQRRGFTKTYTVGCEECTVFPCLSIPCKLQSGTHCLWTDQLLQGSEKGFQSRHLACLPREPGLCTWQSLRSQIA
UniProt P10721, residues 26-976: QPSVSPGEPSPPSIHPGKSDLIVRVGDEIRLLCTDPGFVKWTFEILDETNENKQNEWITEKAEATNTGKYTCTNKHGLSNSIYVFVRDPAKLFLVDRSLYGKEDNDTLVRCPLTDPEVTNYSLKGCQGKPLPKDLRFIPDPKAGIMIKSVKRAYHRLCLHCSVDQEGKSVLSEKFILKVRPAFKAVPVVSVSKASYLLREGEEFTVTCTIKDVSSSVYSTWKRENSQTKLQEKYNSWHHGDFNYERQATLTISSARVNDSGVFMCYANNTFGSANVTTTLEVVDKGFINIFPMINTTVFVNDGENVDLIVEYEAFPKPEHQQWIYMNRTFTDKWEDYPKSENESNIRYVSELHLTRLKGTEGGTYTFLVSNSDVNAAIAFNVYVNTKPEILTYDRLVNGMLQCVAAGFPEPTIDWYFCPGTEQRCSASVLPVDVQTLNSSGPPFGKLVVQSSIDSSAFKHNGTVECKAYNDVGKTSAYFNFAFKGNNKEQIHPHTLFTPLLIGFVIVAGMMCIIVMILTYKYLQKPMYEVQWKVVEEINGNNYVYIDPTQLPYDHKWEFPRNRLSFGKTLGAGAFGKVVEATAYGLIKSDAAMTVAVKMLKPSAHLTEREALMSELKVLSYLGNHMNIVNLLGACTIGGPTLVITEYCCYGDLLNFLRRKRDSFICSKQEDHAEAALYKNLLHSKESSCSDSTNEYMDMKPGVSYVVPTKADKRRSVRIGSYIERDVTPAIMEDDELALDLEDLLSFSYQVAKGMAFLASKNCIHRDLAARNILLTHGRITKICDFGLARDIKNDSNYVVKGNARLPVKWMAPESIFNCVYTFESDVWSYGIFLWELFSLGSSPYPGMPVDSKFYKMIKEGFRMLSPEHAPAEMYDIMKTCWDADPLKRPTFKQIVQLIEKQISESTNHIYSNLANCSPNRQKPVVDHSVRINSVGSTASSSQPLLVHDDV

Molecular target: GFP‐TIMP‐1 (human) (UniProt P01033)
Experiment: co-IP; DLD‐1 wt and DLD‐1 G13D cells transfected with GFP or GFP‐TIMP‐1 24 h prior to lysis; lysates precipitated with GFP‐TRAPs; western blot for TIMP‐1 and c‐Kit

- binding: no binding
Substance: receptor tyrosine kinase c‐Kit (endogenous in DLD‐1 cells) (from UniProt P10721 26-976)
